From paper PMC10763294
These are yes or no findings as the source states them, for the method shown. Binding seen in cells or lysates may run through a third protein. Some binding calls cover weakened binding; strength is not graded here.

Sequences of proteins named here, by UniProt entry; tags and fusion partners are left off.
UniProt Q8N9U0: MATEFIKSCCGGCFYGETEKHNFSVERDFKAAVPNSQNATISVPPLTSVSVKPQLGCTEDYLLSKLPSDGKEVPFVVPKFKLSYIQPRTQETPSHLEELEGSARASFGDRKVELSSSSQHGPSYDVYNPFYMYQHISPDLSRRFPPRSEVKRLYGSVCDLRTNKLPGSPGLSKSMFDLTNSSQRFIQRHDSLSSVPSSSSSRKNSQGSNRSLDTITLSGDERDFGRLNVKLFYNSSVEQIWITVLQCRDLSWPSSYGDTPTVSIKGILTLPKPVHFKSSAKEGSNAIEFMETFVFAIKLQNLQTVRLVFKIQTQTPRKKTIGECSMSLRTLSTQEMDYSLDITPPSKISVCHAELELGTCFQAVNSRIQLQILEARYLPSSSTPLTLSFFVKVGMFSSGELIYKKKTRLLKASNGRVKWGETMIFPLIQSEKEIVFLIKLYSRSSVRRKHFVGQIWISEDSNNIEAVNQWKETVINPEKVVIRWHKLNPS

Biological target: FLAG-TC2N (tandem C2 domains, nuclear), full-length (human) (UniProt Q8N9U0)
Test: co-IP; extracts of TC2N-overexpressing BC cells, IP with anti-Flag antibody and protein A/G agarose beads, 16 h at 4 °C, WB; high glucose condition; normal IgG as negative control

binding: binds
B1: IPO5 (protein, UniProt O00410 1-1097)
chain: MAAAAAEQQQFYLLLGNLLSPDNVVRKQAEETYENIPGQSKITFLLQAIRNTTAAEEARQMAAVLLRRLLSSAFDEVYPALPSDVQTAIKSELLMIIQMETQSSMRKKVCDIAAELARNLIDEDGNNQWPEGLKFLFDSVSSQNVGLREAALHIFWNFPGIFGNQQQHYLDVIKRMLVQCMQDQEHPSIRTLSARATAAFILANEHNVALFKHFADLLPGFLQAVNDSCYQNDDSVLKSLVEIADTVPKYLRPHLEATLQLSLKLCGDTSLNNMQRQLALEVIVTLSETAAAMLRKHTNIVAQTIPQMLAMMVDLEEDEDWANADELEDDDFDSNAVAGESALDRMACGLGGKLVLPMIKEHIMQMLQNPDWKYRHAGLMALSAIGEGCHQQMEGILNEIVNFVLLFLQDPHPRVRYAACNAVGQMATDFAPGFQKKFHEKVIAALLQTMEDQGNQRVQAHAAAALINFTEDCPKSLLIPYLDNLVKHLHSIMVLKLQELIQKGTKLVLEQVVTSIASVADTAEEKFVPYYDLFMPSLKHIVENAVQKELRLLRGKTIECISLIGLAVGKEKFMQDASDVMQLLLKTQTDFNDMEDDDPQISYMISAWARMCKILGKEFQQYLPVVMGPLMKTASIKPEVALLDTQDMENMSDDDGWEFVNLGDQQSFGIKTAGLEEKSTACQMLVCYAKELKEGFVEYTEQVVKLMVPLLKFYFHDGVRVAAAESMPLLLECARVRGPEYLTQMWHFMCDALIKAIGTEPDSDVLSEIMHSFAKCIEVMGDGCLNNEHFEELGGILKAKLEEHFKNQELRQVKRQDEDYDEQVEESLQDEDDNDVYILTKVSDILHSIFSSYKEKVLPWFEQLLPLIVNLICPHRPWPDRQWGLCIFDDVIEHCSPASFKYAEYFLRPMLQYVCDNSPEVRQAAAYGLGVMAQYGGDNYRPFCTEALPLLVRVIQSADSKTKENVNATENCISAVGKIMKFKPDCVNVEEVLPHWLSWLPLHEDKEEAVQTFNYLCDLIESNHPIVLGPNNTNLPKIFSIIAEGEMHEAIKHEDPCAKRLANVVRQVQTSGGLWTECIAQLSPEQQAAIQELLNSA
